Results are given in words; binding and its absence hold for the method and conditions named. In cells and extracts the contact can be indirect. Some binding calls cover weakened binding; strength is not graded here. For part of these data: Where a sequence is shown, tags or fusion partners need not be part of it.
How the values were obtained:
[1] = target: T1, cyclin Y (endogenous, mouse brain and testis) (mouse (endogenous in brain and testis)) (UniProt Q8BGU5); test: co-IP; endogenous proteins from 1 mg mouse brain or testis lysate; anti-PCTAIRE-1 G6.1 or anti-cyclin Y (S206D) with protein G-Sepharose, 1 h at 4 °C; washed with lysis buffer + 0.15 M NaCl and Buffer A; immunoblot; rabbit IgG as control
T1 sequence: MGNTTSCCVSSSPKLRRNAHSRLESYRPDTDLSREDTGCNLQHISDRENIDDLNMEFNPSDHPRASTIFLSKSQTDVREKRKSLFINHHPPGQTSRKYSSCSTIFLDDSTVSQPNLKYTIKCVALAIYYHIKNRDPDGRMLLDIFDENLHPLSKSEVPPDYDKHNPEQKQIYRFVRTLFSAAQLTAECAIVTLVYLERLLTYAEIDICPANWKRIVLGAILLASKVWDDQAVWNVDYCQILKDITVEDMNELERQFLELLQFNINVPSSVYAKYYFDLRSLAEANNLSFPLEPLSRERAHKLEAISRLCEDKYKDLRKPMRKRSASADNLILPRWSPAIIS

The chains behind the UniProt entries cited, without tags or fusion partners.
UniProt Q04735: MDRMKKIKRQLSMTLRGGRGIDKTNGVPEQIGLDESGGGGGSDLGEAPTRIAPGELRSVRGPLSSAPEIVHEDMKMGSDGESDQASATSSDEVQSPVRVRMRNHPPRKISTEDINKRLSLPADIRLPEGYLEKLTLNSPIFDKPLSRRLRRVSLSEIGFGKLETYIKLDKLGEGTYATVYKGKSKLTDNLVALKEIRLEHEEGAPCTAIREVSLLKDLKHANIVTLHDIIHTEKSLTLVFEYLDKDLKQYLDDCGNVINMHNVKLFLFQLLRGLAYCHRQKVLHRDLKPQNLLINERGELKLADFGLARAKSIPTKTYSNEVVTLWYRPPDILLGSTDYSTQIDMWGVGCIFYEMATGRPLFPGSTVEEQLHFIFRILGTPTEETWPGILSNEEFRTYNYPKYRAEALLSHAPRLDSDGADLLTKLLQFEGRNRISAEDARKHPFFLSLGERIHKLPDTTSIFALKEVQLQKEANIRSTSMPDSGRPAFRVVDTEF

[2] = target: PCTAIRE-1 (endogenous, mouse brain and testis) (mouse (endogenous in brain and testis)) (UniProt Q04735); test: as above
FLAG-NUAK1 = target: T2, FLAG-NUAK1 (UniProt O60285); test: co-IP; HEK293 co-transfected with FLAG- and HA-tagged constructs; FLAG M2- or HA-agarose; washed with lysis buffer + 0.15 M NaCl and Buffer A; immunoblot
T2 sequence: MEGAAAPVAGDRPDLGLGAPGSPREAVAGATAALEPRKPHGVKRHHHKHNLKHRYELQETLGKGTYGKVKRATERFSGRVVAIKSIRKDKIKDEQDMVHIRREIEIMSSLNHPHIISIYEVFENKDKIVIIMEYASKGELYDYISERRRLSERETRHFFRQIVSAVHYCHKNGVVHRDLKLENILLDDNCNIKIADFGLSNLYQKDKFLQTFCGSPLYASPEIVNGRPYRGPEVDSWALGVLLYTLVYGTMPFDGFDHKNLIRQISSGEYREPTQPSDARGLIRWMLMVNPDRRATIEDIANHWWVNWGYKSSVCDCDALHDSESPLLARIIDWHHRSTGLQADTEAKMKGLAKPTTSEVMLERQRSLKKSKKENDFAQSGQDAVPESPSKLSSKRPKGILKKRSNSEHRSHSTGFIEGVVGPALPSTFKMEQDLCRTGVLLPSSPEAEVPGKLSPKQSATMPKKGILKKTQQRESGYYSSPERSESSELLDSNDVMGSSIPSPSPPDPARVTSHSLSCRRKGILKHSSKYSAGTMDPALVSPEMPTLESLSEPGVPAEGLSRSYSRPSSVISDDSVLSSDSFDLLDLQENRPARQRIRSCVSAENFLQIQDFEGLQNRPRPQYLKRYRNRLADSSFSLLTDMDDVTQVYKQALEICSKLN

How did the binding [1] turn out when “PCTAIRE-1 (endogenous, mouse brain and testis) (from UniProt Q04735 1-496)” was run?
The binding was “binds”.

B1: cyclin Y (endogenous, mouse brain and testis) (protein, UniProt Q8BGU5 1-341)
chain: MGNTTSCCVSSSPKLRRNAHSRLESYRPDTDLSREDTGCNLQHISDRENIDDLNMEFNPSDHPRASTIFLSKSQTDVREKRKSLFINHHPPGQTSRKYSSCSTIFLDDSTVSQPNLKYTIKCVALAIYYHIKNRDPDGRMLLDIFDENLHPLSKSEVPPDYDKHNPEQKQIYRFVRTLFSAAQLTAECAIVTLVYLERLLTYAEIDICPANWKRIVLGAILLASKVWDDQAVWNVDYCQILKDITVEDMNELERQFLELLQFNINVPSSVYAKYYFDLRSLAEANNLSFPLEPLSRERAHKLEAISRLCEDKYKDLRKPMRKRSASADNLILPRWSPAIIS
Which binding [2] does the source give for B1 here?
Its binding is “binds”.

B2: HA-cyclin Y (natural protein, human, UniProt Q8ND76-1 1-341, looked up)
chain: MGNTTSCCVSSSPKLRRNAHSRLESYRPDTDLSREDTGCNLQHISDRENIDDLNMEFNPSDHPRASTIFLSKSQTDVREKRKSLFINHHPPGQIARKYSSCSTIFLDDSTVSQPNLKYTIKCVALAIYYHIKNRDPDGRMLLDIFDENLHPLSKSEVPPDYDKHNPEQKQIYRFVRTLFSAAQLTAECAIVTLVYLERLLTYAEIDICPANWKRIVLGAILLASKVWDDQAVWNVDYCQILKDITVEDMNELERQFLELLQFNINVPSSVYAKYYFDLRSLAEANNLSFPLEPLSRERAHKLEAISRLCEDKYKDLRRSARKRSASADNLTLPRWSPAIIS
How did the binding (FLAG-NUAK1) turn out when B2 was run?
Its binding is “no binding”.

— article PMC3590450, “Analysis of substrate specificity and cyclin Y binding of PCTAIRE-1 kinase” (Cellular Signalling, 2012)
